Measured values from PubChem BioAssay (EPA / NIEHS).
Inconclusive results, whose numbers are uncertain, are shown with a selection of clear calls. Where the call is inconclusive, the potency comes from a doubtful curve fit. More than one record can exist for a structure, and the calls need not agree. Calls of active or inactive are those of the source. Rule for the calls: active = hit-call score of the fitted dose curve at least 0.9, where 1 is the maximum; inconclusive = response in the unintended direction; inactive = score below 0.9.

Chains of the proteins cited; added tags and fusions are not shown. Lines headed by an entry give the natural chain unless they say otherwise; changes in a name come on top.
UniProt P04150: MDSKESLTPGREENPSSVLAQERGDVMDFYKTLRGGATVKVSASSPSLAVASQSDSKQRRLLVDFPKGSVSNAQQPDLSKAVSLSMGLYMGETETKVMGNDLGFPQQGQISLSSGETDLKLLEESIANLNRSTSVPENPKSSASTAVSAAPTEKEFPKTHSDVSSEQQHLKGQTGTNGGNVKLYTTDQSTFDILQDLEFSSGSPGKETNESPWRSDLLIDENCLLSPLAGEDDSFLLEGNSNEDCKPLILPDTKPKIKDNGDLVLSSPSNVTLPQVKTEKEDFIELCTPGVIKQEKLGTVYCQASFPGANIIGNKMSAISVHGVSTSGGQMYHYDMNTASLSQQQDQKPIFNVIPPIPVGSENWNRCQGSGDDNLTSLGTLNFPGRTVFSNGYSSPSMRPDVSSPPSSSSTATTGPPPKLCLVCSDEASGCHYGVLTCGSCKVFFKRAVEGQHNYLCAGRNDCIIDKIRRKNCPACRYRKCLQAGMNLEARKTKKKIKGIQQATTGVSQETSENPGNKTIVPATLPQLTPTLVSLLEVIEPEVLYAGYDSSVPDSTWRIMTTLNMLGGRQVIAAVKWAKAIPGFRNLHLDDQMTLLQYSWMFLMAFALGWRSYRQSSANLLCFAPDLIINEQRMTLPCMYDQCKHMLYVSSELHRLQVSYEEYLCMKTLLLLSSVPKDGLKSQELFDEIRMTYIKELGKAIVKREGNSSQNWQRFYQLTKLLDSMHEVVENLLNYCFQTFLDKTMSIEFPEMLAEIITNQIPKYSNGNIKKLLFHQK
UniProt Q96RI1: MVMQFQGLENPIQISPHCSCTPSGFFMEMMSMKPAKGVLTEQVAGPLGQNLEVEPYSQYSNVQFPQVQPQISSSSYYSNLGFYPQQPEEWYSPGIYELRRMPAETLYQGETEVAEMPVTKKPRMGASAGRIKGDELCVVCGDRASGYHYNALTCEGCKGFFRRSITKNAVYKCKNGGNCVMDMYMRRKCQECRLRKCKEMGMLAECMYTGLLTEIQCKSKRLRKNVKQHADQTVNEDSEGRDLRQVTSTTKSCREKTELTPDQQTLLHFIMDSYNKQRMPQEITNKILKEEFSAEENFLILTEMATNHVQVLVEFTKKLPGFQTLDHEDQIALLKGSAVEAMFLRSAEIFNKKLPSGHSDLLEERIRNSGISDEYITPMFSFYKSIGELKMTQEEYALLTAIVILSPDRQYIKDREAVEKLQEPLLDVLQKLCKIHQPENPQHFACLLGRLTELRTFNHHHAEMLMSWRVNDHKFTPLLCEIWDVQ
UniProt O75469: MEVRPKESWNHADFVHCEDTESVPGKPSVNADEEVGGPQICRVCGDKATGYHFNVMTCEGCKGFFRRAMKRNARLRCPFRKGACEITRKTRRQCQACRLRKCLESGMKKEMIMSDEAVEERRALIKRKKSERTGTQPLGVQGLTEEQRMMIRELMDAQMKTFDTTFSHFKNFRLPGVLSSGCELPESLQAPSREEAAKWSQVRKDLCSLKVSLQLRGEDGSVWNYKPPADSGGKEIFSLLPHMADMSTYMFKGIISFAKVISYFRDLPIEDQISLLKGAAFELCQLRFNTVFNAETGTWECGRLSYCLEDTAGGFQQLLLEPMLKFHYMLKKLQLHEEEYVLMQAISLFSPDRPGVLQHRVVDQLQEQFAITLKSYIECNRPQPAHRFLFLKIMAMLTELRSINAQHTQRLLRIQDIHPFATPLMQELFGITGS
UniProt Q01717: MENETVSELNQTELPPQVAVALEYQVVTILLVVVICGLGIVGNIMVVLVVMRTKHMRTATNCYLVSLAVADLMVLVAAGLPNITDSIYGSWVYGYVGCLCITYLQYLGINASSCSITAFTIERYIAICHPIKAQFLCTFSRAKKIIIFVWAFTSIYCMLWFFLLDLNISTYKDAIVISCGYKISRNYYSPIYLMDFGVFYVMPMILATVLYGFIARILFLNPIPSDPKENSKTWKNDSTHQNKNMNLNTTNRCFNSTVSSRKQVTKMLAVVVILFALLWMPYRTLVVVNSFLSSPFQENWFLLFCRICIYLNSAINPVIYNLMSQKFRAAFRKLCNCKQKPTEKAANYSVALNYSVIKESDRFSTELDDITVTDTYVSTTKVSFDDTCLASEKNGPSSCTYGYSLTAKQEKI
UniProt P04406: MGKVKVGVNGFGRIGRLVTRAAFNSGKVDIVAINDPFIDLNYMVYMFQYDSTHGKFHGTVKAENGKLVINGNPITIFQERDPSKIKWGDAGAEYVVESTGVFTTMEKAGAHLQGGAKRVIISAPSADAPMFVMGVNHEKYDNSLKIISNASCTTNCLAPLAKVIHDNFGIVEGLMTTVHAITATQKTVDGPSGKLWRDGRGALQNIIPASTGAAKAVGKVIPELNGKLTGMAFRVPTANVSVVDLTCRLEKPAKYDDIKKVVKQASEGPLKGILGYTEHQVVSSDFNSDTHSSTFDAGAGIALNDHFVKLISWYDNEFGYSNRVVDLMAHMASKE
UniProt P11712, whole entry, looked up: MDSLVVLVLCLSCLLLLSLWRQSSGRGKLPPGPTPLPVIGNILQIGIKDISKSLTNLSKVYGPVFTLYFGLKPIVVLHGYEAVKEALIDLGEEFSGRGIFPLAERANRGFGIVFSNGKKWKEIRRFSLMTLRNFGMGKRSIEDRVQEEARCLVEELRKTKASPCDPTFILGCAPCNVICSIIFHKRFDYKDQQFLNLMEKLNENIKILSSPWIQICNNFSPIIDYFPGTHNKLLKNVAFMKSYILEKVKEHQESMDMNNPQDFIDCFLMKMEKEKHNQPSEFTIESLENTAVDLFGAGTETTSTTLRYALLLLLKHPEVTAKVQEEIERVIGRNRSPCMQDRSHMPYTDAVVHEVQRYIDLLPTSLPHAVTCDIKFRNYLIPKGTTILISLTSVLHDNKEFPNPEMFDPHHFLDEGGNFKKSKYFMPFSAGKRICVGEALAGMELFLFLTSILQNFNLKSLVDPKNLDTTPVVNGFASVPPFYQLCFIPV
UniProt P33261, whole entry, looked up: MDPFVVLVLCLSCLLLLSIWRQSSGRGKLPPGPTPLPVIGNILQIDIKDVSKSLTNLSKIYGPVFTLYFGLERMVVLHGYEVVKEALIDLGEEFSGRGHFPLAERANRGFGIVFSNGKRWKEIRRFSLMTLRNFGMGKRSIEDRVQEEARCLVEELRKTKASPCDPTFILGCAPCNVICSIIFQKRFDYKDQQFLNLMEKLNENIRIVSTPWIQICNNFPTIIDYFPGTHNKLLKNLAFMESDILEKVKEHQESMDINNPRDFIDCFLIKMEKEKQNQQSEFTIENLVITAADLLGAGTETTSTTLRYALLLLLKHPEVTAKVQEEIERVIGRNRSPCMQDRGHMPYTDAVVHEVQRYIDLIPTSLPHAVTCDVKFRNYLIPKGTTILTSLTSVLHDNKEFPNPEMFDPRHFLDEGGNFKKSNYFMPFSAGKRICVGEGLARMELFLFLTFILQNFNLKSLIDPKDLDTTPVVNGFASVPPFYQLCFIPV
UniProt Q9UNQ0: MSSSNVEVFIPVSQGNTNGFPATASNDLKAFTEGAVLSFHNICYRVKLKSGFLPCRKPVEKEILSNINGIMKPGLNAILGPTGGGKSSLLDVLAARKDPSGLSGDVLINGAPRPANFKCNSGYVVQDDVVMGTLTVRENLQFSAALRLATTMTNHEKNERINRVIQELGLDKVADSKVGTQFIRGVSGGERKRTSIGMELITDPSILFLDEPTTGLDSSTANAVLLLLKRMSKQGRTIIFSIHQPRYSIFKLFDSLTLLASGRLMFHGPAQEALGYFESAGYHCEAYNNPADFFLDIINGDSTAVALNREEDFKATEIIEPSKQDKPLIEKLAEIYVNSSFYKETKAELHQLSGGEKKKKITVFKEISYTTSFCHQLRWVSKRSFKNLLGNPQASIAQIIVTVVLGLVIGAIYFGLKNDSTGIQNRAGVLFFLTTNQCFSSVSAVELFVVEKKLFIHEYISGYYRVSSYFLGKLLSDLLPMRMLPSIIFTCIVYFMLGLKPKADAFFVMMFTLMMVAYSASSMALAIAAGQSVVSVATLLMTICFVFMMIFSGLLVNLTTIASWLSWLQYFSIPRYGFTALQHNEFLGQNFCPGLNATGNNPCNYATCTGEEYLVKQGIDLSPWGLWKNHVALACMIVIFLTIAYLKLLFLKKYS

Key:
[1] = molecular target: Glucocorticoid receptor (Homo sapiens) (UniProt P04150); assay: ATG_GR_TRANS: Attagene TRANS-FACTORIAL HepG2 Assay for human Glucocorticoid Receptor (GR) (AID 2282978); details: HepG2 Attagene TRANS GR reporter, mRNA transcription;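 note: activators score as hits since higher reporter transcript over DMSO is fitted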
Summary of the method: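 In this trans-factorial format, exogenous NR-GAL4 chimeric proteins in transfected HepG2 cells regulate GAL4-UAS reporter transcription. After 24 h treatment, reporter mRNA induction relative to DMSO is read by RT-PCR and capillary electrophoresis.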

[2] = molecular target: Bile acid receptor (Homo sapiens) (UniProt Q96RI1); assay: ATG_FXR_TRANS: Attagene TRANS-FACTORIAL HepG2 Assay for Farnesoid X Receptor (FXR) (AID 2282979); details: HepG2 Attagene TRANS FXR-GAL4 reporter transcription;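 note: hits raise reporter mRNA above DMSO so AC50 marks FXR activation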
Summary of the method: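 Transient transfection of HepG2 with multiplexed GAL4-UAS reporter units; exogenous FXR-GAL4 chimera. Dose 24 h → TriZol RNA → oligo(dT) RT → PCR, 6-FAM primer extension, HpaI cut → CE. Gain vs DMSO.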

[3] = CCTE_Deisenroth_AIME_384WELL_CTox_Inactive: Cytotoxicity Assessment (CTOX) in CCTE's 384-well Estrogen Receptor Transactivation Assay without AIME metabolic competence (metabolism negative), Deisenroth Lab (AID 2284039);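 note: cell viability via live-cell protease substrate cleaved to fluorescent probe; cells exposed 24 h to medium preincubated 2 h with alginate-water beads without S9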
Summary of the method: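 Metabolism-negative arm: chemicals (10-point, 0.002 - 200 uM) preincubated 2 h with alginate-water lids, medium moved onto VM7Luc4E2 cells for 24 h. Fluorescent live-cell protease readout; bidirectional curve fit.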

[4] = molecular target: Nuclear receptor subfamily 1 group I member 2 (Homo sapiens) (UniProt O75469); assay: ATG_PXR_TRANS: Attagene TRANS-FACTORIAL HepG2 Assay for human Pregnane X Receptor (PXR) (AID 2283008)
Summary of the method: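 Trans-factorial format: exogenous NR-Gal4 fusion activity, not endogenous factor, in transfected human HepG2 liver cells. After 24 h dosing, RNA isolated, reverse-transcribed, amplified and resolved by capillary electrophoresis; induction scored versus DMSO.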

[5] = molecular target: rat Thyrotropin Releasing Hormone Receptor (TRH), Trhr (gene 25570) (UniProt Q01717); assay: NVS_GPCR_rTRH: NovaScreen (NVS) G Protein-Coupled Receptor Assay for rat Thyrotropin Releasing Hormone Receptor (TRH) (AID 2283329);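 note: hit means lower bound tracer signal versus DMSO baseline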
Summary of the method: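 Rat forebrain membrane prep, radioligand displacement, filter scintillation readout at 4 h. Single conc 25 uM, duplicate; actives retested as concentration series. DMSO = negative control/baseline.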

[6] = CLD_ACTIN_6hr: CellzDirect (CLD) Gene Expression Assay for Baseline Control (Actin) at 6 hours (AID 2283676)
Summary of the method: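 Baseline actin transcript level measured by qNPA (S1 nuclease protection, chemiluminescence) in human hepatocyte cultures 6 h after chemical exposure; 0.2% DMSO vehicle as reference, cytotoxicity noted from morphology.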

[7] = read-out: Glyceraldehyde-3-phosphate dehydrogenase (Homo sapiens) (UniProt P04406); assay: CLD_GAPDH_6hr: CellzDirect (CLD) Gene Expression Assay for Baseline Control (Glyceraldehyde 3-phosphate dehydrogenase) at 6 hours (AID 2283681)
Summary of the method: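 GAPDH baseline-control readout from qNPA (S1 nuclease digestion, probe hybridization, chemiluminescence) in lysates of cultured human hepatocytes harvested 6 h post-dosing. Chemicals tested at multiple concentrations versus 0.2% DMSO vehicle; microscopy-based cytotoxicity flagged yes/no.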

[8] = read-out: Cytochrome P450 2C9 (Homo sapiens) (UniProt P11712); assay: CLD_CYP2C9_24hr: CellzDirect (CLD) Gene Expression Assay for xenobiotic metabolism (CYP2C9) at 24 hours (AID 2283688);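 for AC50: potency for induction meaning a rise in CYP2C9 mRNA over DMSO vehicle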
Summary of the method: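 Induction of CYP2C9 mRNA was quantified by quantitative nuclease protection assay (chemiluminescence), gain of signal versus 0.2% DMSO vehicle, 24 h after dosing. Human primary hepatocytes (two donors) received fresh chemical daily at multiple concentrations; morphology-based cytotoxicity flagged yes/no.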

[9] = read-out: ABC Transporter (ABCB11), ABCB11 (gene 8647); assay: CLD_ABCB11_48hr: CellzDirect (CLD) Gene Expression Assay for ABC Transporter (ABCB11) at 48 hours (AID 2283697)
Summary of the method: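 Induction of ABCB11 mRNA relative to 0.2% DMSO, measured at 48 h by qNPA chemiluminescence. Cultured human hepatocytes (two donors) received fresh dosing solutions at several concentrations on two consecutive days.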

[10] = read-out: Cytochrome P450 2C19 (Homo sapiens) (UniProt P33261); assay: CLD_CYP2C19_48hr: CellzDirect (CLD) Gene Expression Assay for xenobiotic metabolism (CYP2C19) at 48 hours (AID 2283700)
Summary of the method: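 CYP2C19 mRNA induction read by chemiluminescent quantitative nuclease protection assay after 48 h, with fresh compound added daily for two days to cultured human liver hepatocytes. Activity fitted upward against 0.2% DMSO vehicle.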

[11] = read-out: Broad substrate specificity ATP-binding cassette transporter ABCG2 (Homo sapiens) (UniProt Q9UNQ0); assay: CLD_ABCG2_48hr: CellzDirect (CLD) Gene Expression Assay for ABC Transporter (ABCG2) at 48 hours (AID 2283704);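 for AC50: potency for induction of ABCG2 mRNA above the DMSO baseline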
Summary of the method: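 ABCG2 transcript measured at 48 h by quantitative nuclease protection (chemiluminescent) and fitted for increase relative to 0.2% DMSO. Hepatocyte cultures from separate donors got fresh compound daily over two days; morphology annotated cytotoxicity.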

[12] = read-out: alkyl and aryl transferase (GSTA2), GSTA2 (gene 2939); assay: CLD_GSTA2_48hr: CellzDirect (CLD) Gene Expression Assay for alkyl and aryl transferase (GSTA2) at 48 hours (AID 2283708);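 note: active means mRNA induction above DMSO vehicle baseline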
Summary of the method: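 GSTA2 mRNA quantified by qNPA chemiluminescence in human primary hepatocyte lysates after 48 h of daily fresh chemical dosing. Increases fitted against 0.2% DMSO vehicle baseline; cytotoxicity from morphology annotated yes/no.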

[13] = ATG_Hpa5_TRANS: Attagene TRANS-FACTORIAL HepG2 Assay for human GAL4-Hpa5 Hepatocyte Transcription Factor Basal Promoter (AID 2282975); details: HepG2 Attagene GAL4-Hpa5 transcription reporter
Summary of the method: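 Gain-of-signal versus DMSO is fitted for reporter mRNA quantified by RT-PCR and capillary electrophoresis after 24 h exposure. This endpoint is an internal background marker in transiently transfected HepG2 cells carrying GAL4-UAS reporter units.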

[14] = read-out: Cytochrome P450 2C19 (Homo sapiens) (UniProt P33261); assay: CLD_CYP2C19_6hr: CellzDirect (CLD) Gene Expression Assay for xenobiotic metabolism (CYP2C19) at 6 hours (AID 2283678)
Summary of the method: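 CYP2C19 transcript induction was quantified by quantitative nuclease protection assay with chemiluminescent read-out, 6 h after dosing. Cells were primary human hepatocytes from two donor preparations, given fresh dosing solutions daily in 0.2% DMSO vehicle. Activity was relative to DMSO.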

[15] = read-out: HMG-CoA synthase (HMGCS2), HMGCS2 (gene 3158); assay: CLD_HMGCS2_6hr: CellzDirect (CLD) Gene Expression Assay for HMG-CoA synthase (HMGCS2) at 6 hours (AID 2283682);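 note: actives raise HMGCS2 transcript above the 0.2% DMSO vehicle baseline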
Summary of the method: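 HMGCS2 transcript induction read by quantitative nuclease protection with chemiluminescence, 6 h after dosing of primary human hepatocytes. Baseline was 0.2% DMSO vehicle; phase-contrast morphology gave a yes/no cytotoxicity annotation.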

[16] = read-out: Glyceraldehyde-3-phosphate dehydrogenase (Homo sapiens) (UniProt P04406); assay: CLD_GAPDH_24hr: CellzDirect (CLD) Gene Expression Assay for Baseline Control (Glyceraldehyde 3-phosphate dehydrogenase) at 24 hours (AID 2283692)
Summary of the method: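 GAPDH baseline-control readout: qNPA chemiluminescent mRNA signal in human primary hepatocytes harvested 24 h after daily dosing, normalised to 0.2% DMSO with positive fitting direction; cytotoxicity annotated by phase-contrast morphology.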

[17] = CCTE_Deisenroth_AIME_384WELL_CTox_Active: Cytotoxicity Assessment (CTOX) in CCTE's 384-well Estrogen Receptor Transactivation Assay with AIME metabolic competence (metabolism positive), Deisenroth Lab (AID 2284037);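 note: chemicals first conditioned 2 h by alginate-bound induced rat liver S9 before cells; activity means signal loss indicating cell death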
Summary of the method: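 VM7Luc4E2 breast cells received medium pre-incubated 2 h with chemical over alginate microspheres holding induced male Sprague Dawley rat liver S9; viability read 24 h later by protease-substrate fluorescence. Loss of signal, bidirectional fit, 0.002–200 uM.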

[18] = read-out: Cytochrome P450 2C19 (Homo sapiens) (UniProt P33261); assay: CLD_CYP2C19_24hr: CellzDirect (CLD) Gene Expression Assay for xenobiotic metabolism (CYP2C19) at 24 hours (AID 2283687)
Summary of the method: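 CYP2C19 mRNA was quantified by qNPA chemiluminescence after 24 h of daily dosing of cultured human primary hepatocytes from two donors; vehicle was 0.2% DMSO, and increases over DMSO baseline were fitted.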

[19] = Tanguay_ZF_120hpf_PIG_legacy: (Legacy) Oregon State University Tanguay Lab 120 Hour Post-fertilization zebrafish Assay for Pigmentation Malformation (AID 2283650)
Summary of the method: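 Endpoint is incidence of abnormal pigmentation at 120 hpf in dechorionated 5D zebrafish exposed singly from 6 hpf at 28C, DMSO vehicle at 0.64%. Embryos dying by 24 or 120 hpf are excluded from scoring.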

[20] = read-out: organic anion transporter (SLCO1B1), SLCO1B1 (gene 10599); assay: CLD_SLCO1B1_24hr: CellzDirect (CLD) Gene Expression Assay for organic anion transporter (SLCO1B1) at 24 hours (AID 2283690)
Summary of the method: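 SLCO1B1 mRNA induction read at 24 h by quantitative nuclease protection assay (chemiluminescence), analyzed against DMSO baseline. Human hepatocyte cultures from separate donors received fresh dosing solutions daily; vehicle 0.2% DMSO; cytotoxicity flagged by phase-contrast morphology.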

Measured: AC50

CN(N=O)c1ccccc1
inconclusive: [1] 183 µM

COCC(=O)N(c1c(C)cccc1C)C(C)C(=O)OC (stereo unspecified)
inactive: [4] | [8] | [10]
inconclusive: [5] 1.35 µM | [6] 20 µM | [7] 20 µM | [9] 1.9 µM | [11] 1.9 µM | [12] 0.0145 µM

Cc1ccccc1CO[C@@H]1C[C@@]2(C(C)C)CC[C@]1(C)O2
inactive: [17]
inconclusive: [13] 50 µM | [14] 0.133 µM | [15] 0.000959 µM | [16] 20 µM | [9] 20 µM

O=[N+]([O-])c1c(Cl)c(Cl)cc(Cl)c1Cl
inconclusive: [2] 48.8 µM
inactive: [4]

CCCCOC(=O)c1ccccc1C(=O)OCc1ccccc1
inconclusive: [19] 1.44 µM | [17] 100 µM | [3] 100 µM

Cc1cnc(C2=NC(C)(C(C)C)C(=O)N2)c(C(=O)O)c1 (stereo unspecified)
inconclusive: [13] 50 µM | [1] 50 µM | [14] 0.000399 µM | [9] 0.00781 µM | [10] 0.000396 µM | [11] 20 µM | [12] 20 µM
inactive: [5] | [7] | [15] | [18] | [20] | [16]

CC(C)=CC1C(C(=O)OCN2C(=O)C3=C(CCCC3)C2=O)C1(C)C (stereo unspecified)
inactive: [13] | [1] | [7] | [9] | [12]
inconclusive: [19] 2.16 µM | [14] 20 µM | [15] 20 µM | [17] 0.0002 µM | [3] 0.0002 µM

CCCOc1nn(C(=O)NS(=O)(=O)c2ccccc2C(=O)OC)c(=O)n1C
inactive: [6] | [14] | [7] | [16] | [9] | [10] | [11]
inconclusive: [13] 11.8 µM | [19] 1.35 µM | [18] 20 µM

CCOP(=O)(NC(C)C)Oc1ccc(SC)c(C)c1 (stereo unspecified)
inactive: [13] | [18] | [10]
inconclusive: [6] 20 µM | [14] 20 µM | [7] 3.97 µM | [15] 0.245 µM | [20] 20 µM | [9] 20 µM | [11] 20 µM | [12] 20 µM | [17] 0.000253 µM

CCCCN(CC)c1c([N+](=O)[O-])cc(C(F)(F)F)cc1[N+](=O)[O-]
inconclusive: [19] 21.8 µM | [14] 3.97 µM | [15] 20 µM | [18] 3.97 µM | [20] 20 µM | [16] 7.27 µM | [9] 20 µM | [10] 3.97 µM | [17] 0.0002 µM | [3] 0.0002 µM
inactive: [1]

Part of the list above in order of length of the SMILES, high to low.
CCCCN(CC)c1c([N+](=O)[O-])cc(C(F)(F)F)cc1[N+](=O)[O-]
inconclusive: [19] 21.8 µM | [14] 3.97 µM | [15] 20 µM | [18] 3.97 µM | [20] 20 µM | [16] 7.27 µM | [9] 20 µM | [10] 3.97 µM | [17] 0.0002 µM | [3] 0.0002 µM
inactive: [1]

CC(C)=CC1C(C(=O)OCN2C(=O)C3=C(CCCC3)C2=O)C1(C)C (stereo unspecified)
inactive: [13] | [1] | [7] | [9] | [12]
inconclusive: [19] 2.16 µM | [14] 20 µM | [15] 20 µM | [17] 0.0002 µM | [3] 0.0002 µM

CCOP(=O)(NC(C)C)Oc1ccc(SC)c(C)c1 (stereo unspecified)
inactive: [13] | [18] | [10]
inconclusive: [6] 20 µM | [14] 20 µM | [7] 3.97 µM | [15] 0.245 µM | [20] 20 µM | [9] 20 µM | [11] 20 µM | [12] 20 µM | [17] 0.000253 µM

Next results follow:

Clc1ccc(C(Cl)(Cl)Cl)cn1
inconclusive: [2] 100 µM

N#CN=C1SCCN1Cc1ccc(Cl)nc1
inconclusive: [6] 20 µM | [15] 0.00231 µM
inactive: [10]

CC1(C)[C@H](C(=O)O[C@H](C#N)c2cccc(Oc3ccccc3)c2)[C@@H]1C=C(Br)Br
inconclusive: [5] 45.4 µM

O=P(Oc1ccccc1)(Oc1ccccc1)Oc1ccccc1
inactive: [1]

O=C(O)CCl
inconclusive: [4] 100 µM | [5] 0.532 µM | [17] 0.0002 µM

O=S(=O)(O)C(F)(F)C(F)(F)C(F)(F)C(F)(F)C(F)(F)C(F)(F)C(F)(F)C(F)(F)F
inconclusive: [7] 20 µM | [20] 6.93 µM | [9] 20 µM | [10] 20 µM | [11] 20 µM | [12] 20 µM
active: [19] 46.6 µM | [15] 3.97 µM | [3] 100 µM
inactive: [8]

C=C(C)[C@H]1Cc2c(ccc3c2O[C@@H]2COc4cc(OC)c(OC)cc4[C@@H]2C3=O)O1
active: [9] 3.73 µM | [11] 0.309 µM | [12] 0.66 µM
inconclusive: [13] 0.32 µM | [2] 1.21 µM | [14] 0.253 µM | [16] 28.1 µM
inactive: [6] | [15] | [18] | [8]
